In this experiment the target is T1, RAB24 (UniProt Q969Q5).
T1 sequence: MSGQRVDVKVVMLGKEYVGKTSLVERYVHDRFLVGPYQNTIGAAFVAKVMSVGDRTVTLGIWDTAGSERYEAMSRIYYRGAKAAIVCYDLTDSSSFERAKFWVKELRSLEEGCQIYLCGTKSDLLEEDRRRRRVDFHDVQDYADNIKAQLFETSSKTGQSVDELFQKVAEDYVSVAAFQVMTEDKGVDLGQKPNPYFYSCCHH
The experiment is described as follows: co-IP; a series of co-immunoprecipitation assays; cells, antibodies and which protein was precipitated are not told in the text shown.

Chains of the proteins cited; added tags and fusions are not shown. Lines headed by an entry give the natural chain unless they say otherwise; changes in a name come on top.
UniProt P24347: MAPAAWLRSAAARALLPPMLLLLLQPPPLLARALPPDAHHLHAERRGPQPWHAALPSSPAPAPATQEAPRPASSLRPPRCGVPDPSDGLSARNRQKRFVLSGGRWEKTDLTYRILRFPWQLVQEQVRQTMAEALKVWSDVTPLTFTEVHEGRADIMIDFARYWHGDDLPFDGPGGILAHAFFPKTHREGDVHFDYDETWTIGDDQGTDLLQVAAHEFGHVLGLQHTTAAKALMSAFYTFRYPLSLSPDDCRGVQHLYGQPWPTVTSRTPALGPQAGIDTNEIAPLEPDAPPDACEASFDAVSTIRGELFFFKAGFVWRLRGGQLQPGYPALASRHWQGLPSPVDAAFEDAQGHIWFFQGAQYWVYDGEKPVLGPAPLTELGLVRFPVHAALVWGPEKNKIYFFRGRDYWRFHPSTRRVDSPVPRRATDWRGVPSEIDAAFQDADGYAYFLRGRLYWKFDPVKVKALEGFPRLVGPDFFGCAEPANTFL

Our source for the binding values is paper PMC12999284.

These are yes or no findings as the source states them, for the method shown. Binding seen in cells or lysates may run through a third protein. A result given as binding can be weak or reduced; the word gives no strength.

For MMP11 (from UniProt P24347), the binding entry was “binds”.
